Test results as given in PubChem BioAssay AID1347076 (National Center for Advancing Translational Sciences (NCATS), 2019).
Out of some 400,000 compounds screened, about 13,000 (3.2%) were called active. The shares of active, inactive and inconclusive entries below differ from those in the screen. Calls follow the shape of the dose curve; as a rule, active = well fitted cell-killing curve with a large enough effect; inconclusive = small, poorly fitted or top-dose-only effect, or effect the other way; inactive = flat fitted curve, though single readings scatter. Where the call is inconclusive, the potency comes from a doubtful curve fit.

Test: qHTS assay for MDR1-selective chemotherapeutics: Primary screen using the drug-selected MDR subline cells KB-V1; also: nearly all actives have a fitted effect of over 60% in size
Details: KB-V1 MDR cells viability, CellTiter-Glo, 72 h; activity change, negative = cytotoxicity: at 46.1 µM (top of the series)
Summary of the method: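 Cytotoxicity via CellTiter-Glo luminescence after 72 h compound exposure at 37 degrees C. Cells: drug-selected KB-V1 line, DMEM phenol-red free plus 10% FBS. Compounds tested at multiple concentrations; normalized data fitted to concentration-effect curves.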
% is scaled to controls: 0 for no effect and ±100 for the full control effect; potency is read from the fitted curve at half-maximal effect.

Compound | Potency | activity change, negative = cytotoxicity
CC(C)(C)OC(=O)N1CCC(NC(=O)c2[nH]cnc2C(=O)N[C@@H](Cc2ccccc2)C(=O)OCc2ccccc2)CC1 | inconclusive: 18.4 µM [cytotoxic, single point] | –
O=C(O)CC/C(=N\NC(=O)c1ccccc1)c1cccs1 | inactive | –
COc1ccccc1N1CCN(Cc2ccc(C(=O)O)cc2)CC1 | inconclusive: 8.2 µM [rising, partial curve] | –
Cc1ccc(C(C)C)c(OCCSc2nc(-c3ccccc3F)nc3cc(=O)[nH]n23)c1 | inactive | –
c1ccc2c(c1)Cc1cc(CN3CCOCC3)ccc1-2 | active: 20.6 µM | –
CCOC(=O)N1CCN(S(=O)(=O)N2CCCC(C(=O)NCCc3ccc(OC)c(OC)c3)C2)CC1 (stereo unspecified) | inactive | –
COc1ccc(NC(=O)COC(=O)Cc2ccc(-c3ccccc3)cc2)c(OC)c1 | inconclusive: 29.1 µM [rising, single point] | –
CC(C)c1ccc(CN(C(=O)c2cccs2)C2CCS(=O)(=O)C2)cc1 (stereo unspecified) | inconclusive: 5.17 µM [cytotoxic, partial curve] | –
CCOC(=O)c1c(C)[nH]c(C(=O)CN2C(=O)NC(C)(c3ccc(C)cc3)C2=O)c1C (stereo unspecified) | inconclusive: 29.1 µM [cytotoxic, single point] | –
CC1(C(=O)NS(=O)(=O)c2ccccc2Cl)CCN1C(=O)COc1ccc(Cl)cc1 (stereo unspecified) | inactive | –
CC(C)(C)OC(=O)N1CC(O)CC1C(=O)OCC(=O)c1ccc(-c2ccccc2)cc1 (stereo unspecified) | inconclusive: 29.1 µM [rising, single point] | –
COc1ccccc1NC(=O)c1ccc(CSc2ccccc2)o1 | inconclusive: 18.4 µM [cytotoxic, single point] | –
O=Cc1c[nH]c2ccc(C(=O)c3ccccc3)cc12 | inconclusive: 29.1 µM [cytotoxic, single point] | –
Cc1c2cnn(CC(=O)NCc3ccc(F)cc3)c(=O)c2c(C)n1Cc1cccc(Cl)c1 | inconclusive: 29.1 µM [cytotoxic, single point] | –
CCOCCCN(Cc1ccco1)S(=O)(=O)c1cc2c(cc1Cl)NC(=O)CO2 | inactive | –
CCOc1cc(/C=N/NC(N)=O)cc(Br)c1OCc1ccccc1 | inconclusive: 13 µM [cytotoxic, partial curve] | –
Cc1cccc(NC(=O)N2CCC(c3nc4ccccc4o3)CC2)c1 | active: 18.4 µM | –
O=C(Oc1ccc(N(C(=O)c2ccncc2)S(=O)(=O)c2ccc(Cl)cc2)cc1)c1ccncc1 | inactive | –
COc1ccc(OCCN2CCN(S(=O)(=O)c3ccccc3C#N)CC2)cc1 | inconclusive: 13 µM [cytotoxic, partial curve] | –
Cc1cc(C(F)(F)F)c2c(N)c(C(=O)Nc3cc(C)on3)sc2n1 | inactive | –
CCc1cccc2sc(N3CCN(C(=O)c4ccc([N+](=O)[O-])o4)CC3)nc12 | inconclusive: 18.4 µM [cytotoxic, single point] | –
CC(Oc1ccc(F)cc1)C(=O)Nc1sc2c(c1C(=O)NCc1cccnc1)CCCC2 (stereo unspecified) | inactive | –
Cc1ccccc1CSc1ncc(C#N)c(N)n1 | inconclusive: 16.4 µM [cytotoxic, single point] | –
O=C(NCCc1ccccc1)C1CCN(C(=O)c2ccc([N+](=O)[O-])cc2)CC1 | inactive | –

Quoted from the listing (5 entries):
Compound | Potency | activity change, negative = cytotoxicity
CC1(C(=O)NS(=O)(=O)c2ccccc2Cl)CCN1C(=O)COc1ccc(Cl)cc1 (stereo unspecified) | inactive | –
CC(C)(C)OC(=O)N1CC(O)CC1C(=O)OCC(=O)c1ccc(-c2ccccc2)cc1 (stereo unspecified) | inconclusive: 29.1 µM [rising, single point] | –
COc1ccccc1NC(=O)c1ccc(CSc2ccccc2)o1 | inconclusive: 18.4 µM [cytotoxic, single point] | –
O=Cc1c[nH]c2ccc(C(=O)c3ccccc3)cc12 | inconclusive: 29.1 µM [cytotoxic, single point] | –
Cc1c2cnn(CC(=O)NCc3ccc(F)cc3)c(=O)c2c(C)n1Cc1cccc(Cl)c1 | inconclusive: 29.1 µM [cytotoxic, single point] | –

(listing goes on)

Compound | Potency | activity change, negative = cytotoxicity
COc1ccc(/C=C/C(=O)NC(=S)NNC(=O)c2cccs2)cc1 | inconclusive: 18.4 µM [cytotoxic, partial curve, poor fit] | –
COC(=O)C1C(C(C)C)N(c2ccccc2)OC1(C)O (stereo unspecified) | inactive | –
CCN(c1ccccc1)S(=O)(=O)c1ccc(Cl)c(NC(=O)COC(=O)c2ccc(Cl)c(N)c2)c1 | – | inconclusive: -33.4%
CCOC(=O)C1=C(c2ccccc2)NC(=S)NC1c1ccc(C)c([N+](=O)[O-])c1 (stereo unspecified) | active: 2.91 µM | –
C=CCN1N=C(c2ccc(Cl)s2)CSC1=O | inconclusive: 29.1 µM [cytotoxic, single point] | –
CCOC(=O)c1ccc(NC(=O)NNC(=O)CCc2ccc(OC)cc2)cc1 | inactive | –
Cc1ccc(S(=O)(=O)N2CCC(C(=O)Nc3nnc(COc4ccccc4)s3)CC2)cc1 | inconclusive: 20.6 µM [cytotoxic, partial curve, poor fit] | –
COc1ccc(-c2nc(C3CCCCC3)no2)cc1OC | active: 16.4 µM | –
COC(=O)c1ccccc1NC(=O)C1CC(=O)N(c2ccc(OC)cc2)C1 (stereo unspecified) | inconclusive: 18.4 µM [cytotoxic, single point] | –
CC(=O)N1CCCc2cc(S(=O)(=O)N(C)Cc3ccccc3)ccc21 | inconclusive: 16.4 µM [cytotoxic, single point] | –
Cc1ccc(C)c(-n2c(-c3ccc(Br)cc3)csc2=NC(=O)c2ccccc2F)c1 | inconclusive: 8.2 µM [cytotoxic, single point] | –
COc1ccc(N2CCN(C(=O)c3ccc(CSc4ccccc4)cc3)CC2)cc1 | inconclusive: 16.4 µM [cytotoxic, single point] | –
CCn1nc(C)c2c(-c3ccccc3)cc(=O)n(C(C)C(=O)NCCC(C)C)c21 (stereo unspecified) | inactive | –
COc1ccc(NC(=O)CN2C(=O)CSC(C)C2=O)c(OC)c1 (stereo unspecified) | inconclusive: 29.1 µM [rising, single point] | –
C=CCn1c(C)cc(C(=O)Cn2ncc(Cl)c(Cl)c2=O)c1C | inconclusive: 16.4 µM [cytotoxic, partial curve, poor fit] | –
O=C(NCCN1CCN(Cc2ccccc2)CC1)c1ccc(CS(=O)(=O)c2c(Cl)cccc2Cl)o1 | inconclusive: 23.1 µM [cytotoxic, single point] | –
Cc1sc(NC(=O)CCC(=O)O)c(C(N)=O)c1-c1ccccc1 | inconclusive: 0.731 µM [rising, full curve, poor fit] | –
O=C(NCc1cc(C(F)(F)F)cc(C(F)(F)F)c1)C1CC(c2cccc(F)c2)=NO1 (stereo unspecified) | inconclusive: 2.91 µM [cytotoxic, partial curve, poor fit] | –
COc1cc([C@@H]2CC=C(C(=O)O)[C@H](c3ccccc3)N2S(=O)(=O)c2ccc(C)cc2)cc(OC)c1OC | inconclusive: 20.6 µM [rising, single point] | –
COc1ccc(CNS(=O)(=O)c2ccc(N3CCCCS3(=O)=O)cc2)cc1 | inconclusive: 5.17 µM [cytotoxic, partial curve, poor fit] | –
Cc1ccc2c(c1)c1c3n2CCN(C(=O)C2CC2)C3CCC1 (stereo unspecified) | inactive | –
CC(=O)Nc1ccc(NC(=O)CCc2nc3cccnc3n2Cc2cccs2)cc1 | inactive | –
CC(C)OC(=O)c1ccc(NC(=O)c2ccccc2)cc1 | inconclusive: 11.6 µM [cytotoxic, partial curve, poor fit] | –
Cc1ccc(NC(=O)Cn2c(=O)n(Cc3nc(-c4ccccc4)no3)c(=O)c3cc4c(cc32)OCO4)cc1F | inactive | –

Compound | Potency | activity change, negative = cytotoxicity
O=C(Nc1ccc(Cl)cn1)C1CCN(c2ncnc3c2nc2n3CCCCC2)CC1 | active: 20.6 µM | –
Cc1ccc(C(=O)COC(=O)c2nc(Cl)ccc2Cl)cc1 | inactive | –
Oc1cc(Cc2ccccc2)cnc1CN1CCOCC1 | inconclusive: 29.1 µM [cytotoxic, single point] | –
CCC1CCCCN1C(=O)c1ccc(OC2CCN(C(=O)COC)CC2)cc1 (stereo unspecified) | inactive | –
O=C(NCc1ccccc1C(F)(F)F)c1cccc2c1C(=O)c1ccc(N3CCC(N4CCCCC4)CC3)cc1S2(=O)=O | inconclusive: 20.6 µM [cytotoxic, single point] | –
N#Cc1c2ccc(OCC(N)=O)cc2n2ccccc12 | inactive | –
O=C(COc1ccccc1F)Nc1ccc2nc(SCCOc3ccccc3)sc2c1 | inactive | –
COc1cc(C)cc(OC)c1OCC(=O)Nc1cc(C)on1 | active: 20.6 µM | –
CCOc1ccc(CN2CCc3nc(N4CCN(c5ccccc5OC)CC4)ncc3C2)cc1OC | inconclusive: 18.4 µM [cytotoxic, single point] | –
CC(C)(C)OC(=O)N1CCC(c2c(C(=O)NCc3cccc(Cl)c3)cnn2-c2ccc(F)cc2)CC1 | inactive | –
COC(=O)C1(Cc2ccc3c(c2)CCC3)Cc2ccc3c(c2C1=O)CCC3 (stereo unspecified) | active: 4.61 µM | –
CCOC(=O)c1ccc(NC(=O)Cn2cnc3cc(C)c(C)cc32)cc1 | inactive | –
CCOc1ccc(C(c2nnnn2Cc2ccccc2)N2CCN(C(=O)c3ccco3)CC2)cc1 (stereo unspecified) | inconclusive: 9.2 µM [cytotoxic, partial curve] | –
COc1ccc(CCNC(=O)c2ccccc2)cc1 | inactive | –
O=C(NCc1cccnc1)C(=O)NCC1OCCN1S(=O)(=O)c1ccc(Cl)cc1 (stereo unspecified) | inactive | –
Cc1ccc(NC(=O)c2n[nH]c(=O)c3ccccc23)cc1S(=O)(=O)N1CCOCC1 | inactive | –
COc1cc(/C=C(\C#N)C(=O)NCC2CCCO2)ccc1O (stereo unspecified) | inconclusive: 20.6 µM [rising, single point] | –
CN(C)S(=O)(=O)N1CCC(Oc2ccc(C(=O)NC3CCCCC3)cc2)CC1 | inconclusive: 10.3 µM [cytotoxic, partial curve, poor fit] | –
Cc1ccc(S(=O)(=O)N2CCC(=O)N(C(CO)C(C)C)CC2)cc1 (stereo unspecified) | inactive | –
O=C(OCc1ccc(Br)cc1)c1cc([N+](=O)[O-])ccc1N1CCOCC1 | active: 1.3 µM | –
O=C(/C(=C/c1ccc(Cl)cc1)c1nc2ccccc2[nH]1)c1ccccc1 | inconclusive: 2.91 µM [cytotoxic, partial curve, poor fit] | –
CC(C)N1CCN(c2cccc(Nc3nn4c(=O)c5ccccc5nc4s3)c2)CC1 | inactive | –
Cn1nccc1C(=O)NC1CCCc2c1cnn2-c1ccc(F)cc1F (stereo unspecified) | inconclusive: 0.731 µM [cytotoxic, partial curve] | –
